In all, about 410,000 compounds went through this assay and about 18,000 (4.4%) were called active. The inconclusive results got no clear call from the source; some entries with a clear call stand among them for comparison. No stated cut-off is given here; in the data, active means activity change below about -60%; inconclusive means no clear call, values can overlap the other calls; inactive means above about -39%.
test: qHTS Assay for inhibitors of the human cytomegalovirus (HCMV); details: HFF cells, HCMV-luciferase reporter, 72 h; at 57.5 µM; hits give low values
How it was run: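 Cell-based, HFFs, 1000 cells/well, 16 h 37C; cpds in DMSO + HCMV-luc, MOI 1 PFU/cell; 72 h 37C; OneGlo luminescence after 5 min RT; norm. to buffer vs Salinomycin 10uM.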
On the % scale 0 is the no-effect control and ±100 the full control effect.

Row | SMILES | activity change, negative = inhibition
1 | C[C@]12c3[nH]c4cc(-c5ccco5)ccc4c3CCN1C(=O)[C@@H](CC(=O)NCCc1ccccn1)C[C@@H]2C(=O)N1CCCCC1 | inconclusive: -40.6%
2 | S=C(NCc1ccccc1)N1CCn2cccc2C1c1cccnc1 (stereo not drawn) | active: -71.5%
3 | COc1cccc(-n2c(-c3ccc(C)cc3)cc3c2CC(C)(C)CC3=O)c1 | inconclusive: -50.9%
4 | CCOC(=O)C1=C(CC)OC(N)=C(C#N)C1c1ccc(OC)c(OC)c1OC (stereo not drawn) | inactive: 12.7%
5 | CCCCOc1ccc(CNC(=O)c2cnc3sc(N4CCC(C)CC4)nn3c2=O)cc1 | inactive: 17.2%
6 | CC(=O)Nc1ccccc1OCC(=O)NCCc1ccc(Cl)cc1Cl | inconclusive: -56.8%
7 | COC(=O)CCCC1=CC2=CC(=O)C(C)(OC(=O)c3cccs3)C(=O)C2=CN1CCCOC(C)C (stereo not drawn) | inactive: 4.52%
8 | O=C(Nc1ccc([N+](=O)[O-])cc1)Nc1ccc(N2CCOCC2)c2nonc12 | inconclusive: -44.3%
9 | CC(C)[C@H](NC(=O)c1ccco1)C(=O)Nc1ccc(N2CCCCCC2)cc1 | inactive: -3.94%
10 | O=C(CCCOc1ccccc1)Nc1ccc(Cl)c(S(=O)(=O)N2CCOCC2)c1 | active: -73.4%
11 | COc1ccc(CS(=O)c2nc(C)cc(C)c2S(C)(=O)=O)cc1 (stereo not drawn) | inactive: -10.1%
12 | CCOc1ccc(C(=O)N2CCC(c3ccncc3)CC2)cc1 | inactive: -23.3%
13 | Cc1ccc(OCC(O)CNC2CCCC2)c(C)c1 (stereo not drawn) | inactive: 88.9%
14 | COc1cc(C(=O)NCC(=O)N2CCN(S(=O)(=O)c3cc(C)ccc3C)CC2)cc(OC)c1OC | inconclusive: -59.8%
15 | Cc1ccc(C)c(N2CCN(C(=O)Cn3c(C)c4cnn(-c5ccccc5)c(=O)c4c3C)CC2)c1 | inconclusive: -53.4%
16 | CC1CCCCN1c1nc(-c2ccc(C(C)(C)C)cc2)nc2ccccc12 (stereo not drawn) | inconclusive: -59.6%
17 | CC1CN(C(=O)CCC(=O)NCCCN2CCC(Cc3ccccc3)CC2)c2cc(Cl)ccc2O1 (stereo not drawn) | inconclusive: -47.8%
18 | COC(=O)c1ccccc1NC(=O)Cn1nc(C(F)(F)F)c2c1CCCC2 | inconclusive: -57.1%
19 | COc1ccc(C(=O)CCC(=O)N2CCN(c3ccc(C)cc3)C(C)C2)cc1 (stereo not drawn) | inactive: -25.4%
20 | Cn1c(CCNC(=O)c2ccco2)nc2cc([N+](=O)[O-])ccc21 | inactive: 5.46%
21 | O=S(=O)(O)c1cccnc1SCc1ccccc1 | inactive: 1.12%
22 | Cn1c(=O)c2ccccc2n(Cc2ccccc2F)c1=O | inconclusive: -59.5%
23 | O=C(c1ccc2c(c1)OCO2)N1CCC2(CC1)Oc1ccc(F)cc1C(=O)C21CC(c2ccc(Cl)cc2)=NO1 (stereo not drawn) | inactive: 0%

Single entries from the results shown.
Entry of COc1cccc(-n2c(-c3ccc(C)cc3)cc3c2CC(C)(C)CC3=O)c1 under activity change, negative = inhibition: inconclusive: -50.9%
Entry of COc1cc(C(=O)NCC(=O)N2CCN(S(=O)(=O)c3cc(C)ccc3C)CC2)cc(OC)c1OC under activity change, negative = inhibition: inconclusive: -59.8%

— PubChem BioAssay AID1259415 (National Center for Advancing Translational Sciences (NCATS), 2018)
